The target of assay [1] is T1, ATL31-FLAG (Arabidopsis thaliana) (UniProt Q8LGA5).
T1 sequence: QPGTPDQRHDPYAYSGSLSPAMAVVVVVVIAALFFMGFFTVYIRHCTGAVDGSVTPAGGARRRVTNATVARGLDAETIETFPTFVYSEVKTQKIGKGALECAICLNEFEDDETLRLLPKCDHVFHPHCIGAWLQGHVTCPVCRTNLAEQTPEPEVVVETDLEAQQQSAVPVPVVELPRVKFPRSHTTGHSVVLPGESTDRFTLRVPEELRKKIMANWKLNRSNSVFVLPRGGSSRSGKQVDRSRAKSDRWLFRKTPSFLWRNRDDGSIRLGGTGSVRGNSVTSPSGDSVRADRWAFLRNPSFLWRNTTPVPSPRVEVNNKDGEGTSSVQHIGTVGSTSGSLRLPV
Nature of the assay: co-IP.

Assay [2] deals with T2, ATL31^C143S-FLAG (Arabidopsis thaliana) (UniProt Q8LGA5).
T2 sequence: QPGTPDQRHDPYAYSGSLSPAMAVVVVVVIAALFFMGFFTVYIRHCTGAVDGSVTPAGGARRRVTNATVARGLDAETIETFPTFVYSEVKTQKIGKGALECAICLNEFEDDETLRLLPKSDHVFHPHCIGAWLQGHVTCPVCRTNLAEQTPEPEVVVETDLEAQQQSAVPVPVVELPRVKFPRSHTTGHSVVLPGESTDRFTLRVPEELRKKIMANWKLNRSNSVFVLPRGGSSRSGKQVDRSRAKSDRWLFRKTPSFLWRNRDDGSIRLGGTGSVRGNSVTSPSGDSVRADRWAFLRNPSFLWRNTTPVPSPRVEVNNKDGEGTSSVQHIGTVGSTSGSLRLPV
Nature of the assay: co-IP.

Assay [3] has as its target T3, ATL31-Cub (Arabidopsis thaliana) (UniProt Q8LGA5).
T3 sequence: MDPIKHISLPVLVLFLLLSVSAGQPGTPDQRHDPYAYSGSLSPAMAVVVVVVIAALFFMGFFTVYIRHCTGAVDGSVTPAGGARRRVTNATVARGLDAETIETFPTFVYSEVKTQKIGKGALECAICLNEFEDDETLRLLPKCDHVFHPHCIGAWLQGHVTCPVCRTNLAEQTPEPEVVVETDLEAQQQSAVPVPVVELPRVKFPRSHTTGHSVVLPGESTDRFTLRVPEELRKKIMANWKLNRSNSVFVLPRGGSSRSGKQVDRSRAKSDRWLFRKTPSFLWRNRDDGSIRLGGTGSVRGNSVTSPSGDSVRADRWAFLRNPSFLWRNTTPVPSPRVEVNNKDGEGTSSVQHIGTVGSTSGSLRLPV
The experiment in a line: two-hybrid.

The target in assay [4] is T4, ATL31^C143S-Cub (Arabidopsis thaliana) (UniProt Q8LGA5).
T4 sequence: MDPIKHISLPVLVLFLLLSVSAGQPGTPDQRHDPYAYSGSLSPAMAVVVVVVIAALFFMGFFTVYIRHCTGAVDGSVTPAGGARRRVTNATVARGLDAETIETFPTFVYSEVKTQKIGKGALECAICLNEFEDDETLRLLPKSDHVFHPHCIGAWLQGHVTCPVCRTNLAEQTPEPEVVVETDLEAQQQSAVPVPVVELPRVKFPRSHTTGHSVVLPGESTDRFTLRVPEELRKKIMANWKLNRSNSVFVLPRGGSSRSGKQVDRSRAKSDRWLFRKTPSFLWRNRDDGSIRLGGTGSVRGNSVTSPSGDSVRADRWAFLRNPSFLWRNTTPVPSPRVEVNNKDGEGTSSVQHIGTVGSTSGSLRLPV
The experiment in a line: two-hybrid.

Assay [5] has as its target T5, ATL31-GFP (Arabidopsis thaliana) (UniProt Q8LGA5).
T5 sequence: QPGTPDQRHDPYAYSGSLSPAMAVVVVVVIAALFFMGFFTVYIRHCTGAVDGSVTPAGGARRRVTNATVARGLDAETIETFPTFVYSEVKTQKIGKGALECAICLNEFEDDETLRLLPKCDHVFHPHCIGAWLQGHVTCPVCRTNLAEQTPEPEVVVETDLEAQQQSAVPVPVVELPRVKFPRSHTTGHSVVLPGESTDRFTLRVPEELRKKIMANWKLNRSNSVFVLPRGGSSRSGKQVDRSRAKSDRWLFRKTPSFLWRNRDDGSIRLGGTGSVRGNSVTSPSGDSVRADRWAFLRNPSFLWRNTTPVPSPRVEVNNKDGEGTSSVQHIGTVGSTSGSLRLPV
The experiment in a line: co-IP.

No constants are given. Whether binding was seen depends on the method and setting. For some assays here: Binding seen in cells or lysates may run through a third protein. Some entries that bind do so weakly or less than the wild type. For some assays here: Sequences can lack the tags named with a protein.

B1: GFP-SYP61 (protein, UniProt Q946Y7 1-245)
chain: MSSAQDPFYIVKEEIQDSIDKLQSTFHKWERISPDMGDQAHVAKELVATCGSIEWQVDELEKAITVAAKDPSWYGIDEAELEKRRRWTSNARTQVRNVKSGVLAGKVSSGAGHASEVRRELMRMPNSGEASRYDQYGGRDDDGFVQSESDRQMLLIKQQDEELDELSKSVQRIGGVGLTIHDELVAQERIIDELDTEMDSTKNRLEFVQKKVGMVMKKAGAKGQMMMICFLLVLFIILFVLVFLT
For the molecule B1, the binding result in assay [1] and in assay [2] was “binds” each time.

B2: Nub-SYP61 (protein, UniProt Q946Y7 1-245)
chain: MSSAQDPFYIVKEEIQDSIDKLQSTFHKWERISPDMGDQAHVAKELVATCGSIEWQVDELEKAITVAAKDPSWYGIDEAELEKRRRWTSNARTQVRNVKSGVLAGKVSSGAGHASEVRRELMRMPNSGEASRYDQYGGRDDDGFVQSESDRQMLLIKQQDEELDELSKSVQRIGGVGLTIHDELVAQERIIDELDTEMDSTKNRLEFVQKKVGMVMKKAGAKGQMMMICFLLVLFIILFVLVFLT
On to B2, for which the binding entry in assay [3] and in assay [4] was “binds” throughout.

B3: endogenous SYP61 (protein, UniProt Q946Y7 1-245)
chain: MSSAQDPFYIVKEEIQDSIDKLQSTFHKWERISPDMGDQAHVAKELVATCGSIEWQVDELEKAITVAAKDPSWYGIDEAELEKRRRWTSNARTQVRNVKSGVLAGKVSSGAGHASEVRRELMRMPNSGEASRYDQYGGRDDDGFVQSESDRQMLLIKQQDEELDELSKSVQRIGGVGLTIHDELVAQERIIDELDTEMDSTKNRLEFVQKKVGMVMKKAGAKGQMMMICFLLVLFIILFVLVFLT
Regarding B3, in assay [5], the binding entry is reported as “binds”.

These data come from doi:10.1101/2020.06.03.131094.
